The nature of the test: qHTS Assay to Find Inhibitors of Chronic Active B-Cell Receptor Signaling. As to conditions: ABC-DLBCL IkBa-CBG/CBR reporter, luminescence ratio (green luciferase fused to IkBa over red control in TMD8 lymphoma cells), 4 h. The procedure, abridged: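 Doxycycline induced both beetle luciferases in TMD8 lymphoma cells; IKK-driven degradation limits the IkappaBalpha-fused green signal, while red luminescence normalises for cell number and nonspecific effects. Compounds tested up to 46 uM, 4 hrs.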

Setting [1] is: measured here: CBR red luminescence, cell number.
Setting [2] is: measured here: IkBa-CBG green luminescence.

The list shows a part of the results. These are further read-outs of the screen, such as a control signal, another cell line or another target. No call is given for them. Most of these compounds were active or inconclusive in the main read-out, so they are no random draw. The note in brackets gives the kind of curve behind each potency; many fits are weak.

Turning to `CC(C)C(=O)Nc1cccc(C(=O)Nc2ccccc2C(=O)O)c1`, the half-maximal activity concentration (AC50) under setting [1] is 29.1 µM [falling, single point]. Regarding `Cc1cccc(NC(=O)CSCC(=O)Nc2cccc(S(=O)(=O)N3CCCCCC3)c2)c1`, under setting [1], the AC50 is 14.6 µM [falling, single point]. The same measure, in the same setting: then `O=C(NCCC1=CCCCC1)c1cc2c(s1)CS(=O)(=O)C2`, with 23.1 µM [rising, partial curve, poor fit]; and `N#CC1=C(SCc2ccccc2)NC(=O)CC1c1ccc(O)cc1` (stereo not drawn), with 32.6 µM [falling, single point]; and `Cc1ccc(CC(=O)Nc2ccc(F)c([N+](=O)[O-])c2)cc1`, with 8.2 µM [rising, partial curve, poor fit]. Still for that read-out and setting: next, `Cc1ccc(C(=O)NCCc2cccs2)cc1`: 4.47 µM [falling, partial curve]; `CSc1nc(N(C)C)nc(N(C#N)CCOC(C)=O)n1`: 7.94 µM [rising, partial curve, poor fit]; `CN(CC(=O)Nc1ccc(Cl)c(C(F)(F)F)c1)C(=O)CCN1C(=O)C2CCCCC2C1=O` (stereo not drawn): 32.6 µM [falling, partial curve, poor fit].

Turning to `CC(C)Cc1ccc(CN2CCCC(NC(=O)c3cccc(-n4cnnc4)c3)C2)cc1` (stereo not drawn), the AC50 under setting [1] is 35.5 µM [falling, single point].

Regarding `CC(=O)Nc1ccc2sccc2c1`, the AC50 under setting [1] was 14.1 µM [rising, single point]. Still for that read-out and setting: next, `CCC(=O)Oc1ccc(C(=O)Nc2cccc(C(=O)NC(C)(C)C)c2)cc1`: 35.5 µM [falling, single point]; `Cc1cc(C)n2ncc(C(=O)Nc3ccc(Cl)c(Cl)c3)c2n1`: 0.794 µM [rising, full curve, poor fit].

Regarding `N#C/C(=C/c1cn(CC(=O)O)c2ccccc12)C(=O)NCc1ccccc1`, under setting [1], the half-maximal activity concentration (AC50) was 28.2 µM [falling, partial curve, poor fit]. The same measure, in the same setting: then `O=C(CSc1nnnn1-c1ccc(F)cc1)NNC(=O)c1ccco1`, with 1.41 µM [rising, full curve]. Still for that read-out and setting: then `Cc1cc(C(=O)COc2ccc(Br)cc2F)c(C)n1C1CC1`, with 5.17 µM [rising, single point]; and `N#Cc1ccc(NC(=O)Nc2ccc(Oc3ccc(NC(=O)Nc4ccc(C#N)cc4)cc3)cc2)cc1`, with 11.2 µM [falling, partial curve, poor fit]. Still for that read-out and setting: next, `COc1ccc(-c2cc(=O)c3c(OC)c(OC)c(OC)c(OC)c3o2)cc1OC`: 0.0259 µM [rising, full curve, poor fit]; `COC(=O)CC1=C(C(=O)OC)C(c2ccncc2)C(C#N)=C(N)O1` (stereo not drawn): 3.26 µM [falling, partial curve, poor fit]. Regarding `COc1cc(C(=O)NC2CCN(Cc3nnnn3Cc3ccc(F)cc3)CC2)cc(OC)c1OC`, the half-maximal activity concentration (AC50) is 6.31 µM [rising, full curve, poor fit] under setting [1] and 11.2 µM [falling, partial curve] under setting [2].

`CC(OC(=O)c1ccccc1Br)C(=O)Nc1nc(-c2cccc([N+](=O)[O-])c2)cs1` (stereo not drawn): under setting [1], the AC50 was 23.1 µM [rising, partial curve, poor fit]. Still for that read-out and setting: next, `O=C(COc1ccc(Br)cc1Cl)NC1CCCCC1`: 0.731 µM [rising, full curve]. Same read-out and setting: next, `Nc1nonc1-n1nnc(C(=O)N/N=C/c2ccccc2)c1CN1CCc2ccccc21`: 28.2 µM [rising, single point]; `O=c1cc(N2CCOCC2)c2ccccc2o1`: 0.92 µM [falling, full curve, poor fit]. On the same count and under the same terms, then `Oc1ccc(Cl)cc1CNCc1ccc(C(F)(F)F)cc1`, with 5.17 µM [rising, partial curve]; and `O=C(CSC1=NC(=O)C(Cc2ccccc2)C(=O)N1)Nc1ncccn1` (stereo not drawn), with 12.6 µM [rising, partial curve, poor fit]; and `CCOC(=O)C1CCN(C(=O)CCC(=O)NCCc2ccc(Cl)cc2)CC1`, with 35.5 µM [rising, partial curve, poor fit]. For `COc1ccc(C(C)NC(=O)c2ccoc2C)cc1OC` (stereo not drawn), the AC50 reads like this: under setting [1], 29.1 µM [falling, single point]; under setting [2], 32.6 µM [rising, partial curve, poor fit]. Consider `Oc1ccccc1/C=N/NC(=S)NC1CC2CCC1C2` (stereo not drawn), for which, under setting [1], the AC50 was 0.891 µM [falling, full curve, poor fit]. The same measure, in the same setting: next, `COc1ccc(NC(=O)Nc2cc(C)ccc2F)cc1OC`: 22.4 µM [falling, single point].

As for `O=C(CSc1ncccc1C(=O)O)c1ccc2ccccc2c1`, the AC50 is, setting by setting: under setting [1], 1.58 µM [rising, partial curve, poor fit]; under setting [2], 7.08 µM [falling, partial curve, poor fit]. `Cc1nc(NC(=O)/C=C/c2ccccc2)sc1C(=O)Nc1ccccc1Cl`: the AC50 under setting [1] is 0.447 µM [falling, full curve].

Consider `CN(Cc1ccon1)Cc1cn(C)nc1-c1ccc(Oc2ccccc2)cc1`, for which the AC50 under setting [1] was 17.8 µM [rising, partial curve, poor fit]. Still for that read-out and setting: next, `CCCCCCn1cnc2c(c1=O)c1nc3ccccc3nc1n2/N=C/c1ccco1`: 5.01 µM [falling, partial curve, poor fit]; `Clc1ccc(Cl)c(OCCCCN2CCNCC2)c1`: 15.8 µM [falling, single point]. With `CCc1nn(CCCC(=O)N2CCN(c3ccc(OC)cc3)CC2)c(=O)c2cc3occc3n12`, under setting [1], the AC50 was 2.82 µM [rising, full curve, poor fit].

On to `CCCCNc1c(-c2ccc(-c3ccc(C(C)=O)cc3)c(OC)c2)nc2cnccn12`, for which the AC50 under setting [1] was 32.6 µM [falling, single point]. The same measure, in the same setting: then `CC(NC(=O)c1ccccc1Cl)C(=O)OCc1cn2cc(Cl)ccc2n1` (stereo not drawn), with 9.2 µM [rising, partial curve]; and `O=C(Nc1cccc(Cl)c1)c1cc(-c2ccccc2)on1`, with 5.62 µM [falling, partial curve]. Take `CC(C)C(=O)Nc1ccc2c(c1)nc(CCN1CCN(c3ccccn3)CC1)n2C`: the AC50 under setting [1] is 35.5 µM [falling, single point]. Still for that read-out and setting: then `O=C(c1cc2ccccc2o1)c1cccs1`, with 1.46 µM [rising, partial curve, poor fit].

The values are drawn from PubChem BioAssay AID493014 (National Center for Advancing Translational Sciences (NCATS), 2011).
